According to PubChem BioAssay AID2685 (National Center for Advancing Translational Sciences (NCATS), 2010):
The other results are listed elsewhere or left out. The main result of the screen is listed elsewhere. These columns were measured beside it and carry no call. Compounds called inactive in the main read-out are mostly missing here. Words in brackets tell the shape of the fitted curve; partial curves, single points and poor fits give uncertain potencies.

Test: qHTS Assay for Lipid Storage Modulators in Drosophila S3 Cells;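 for cell number change: cells counted by Cell Tracker Red CMTPX staining in the red channel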
Details: BODIPY lipid droplet fluorescence, 18-24 h; for cell number change: measured here: cell count max response, cells fed with added oleic acid
Method in brief: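 Drosophila S3 cells loaded with oleic acid (400 uM, as added) and compounds at several concentrations; lipid droplets imaged by 488-nm laser-scanning cytometry, 500–530 nm intensity and object ratio to cell channel. Percent activity normalized to 20 uM Triacsin C.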

[1] = measured here: cell number channel AC50, cells fed with added oleic acid
[2] = measured here: lipid fluorescence (Fed channel) AC50, cells fed with added oleic acid

| Structure (SMILES) | cell number change | AC50 [1] | AC50 [2] |
| --- | --- | --- | --- |
| Cn1cccc1/C=C1\SC(=O)N(c2ccc(O)cc2)C1=O | 15% | 0.164 µM [rising, full curve, poor fit] |  |
| Cc1ccc2nc(-c3ccc(NC(=O)CN4C(=O)c5ccccc5C4=O)cc3)sc2c1 | -46.4% | 9.2 µM [falling, partial curve] | 10.3 µM [falling, partial curve] |
| Cc1cc(C)c(S(=O)(=O)N2CCC(C(=O)NCc3ccncc3)CC2)c(C)c1 | 6.18% |  | 1.3 µM [rising, partial curve] |
| COc1ccc(CC(=O)OCC(=O)NCc2ccco2)cc1OC | 10% |  |  |
| O=C(N/N=C/c1ccc2c(c1)OCO2)C(=O)Nc1ccc2ccccc2c1 | -37.5% | 8.2 µM [falling, partial curve, poor fit] | 11.6 µM [falling, partial curve] |
| O=C(NCc1cccs1)c1cc2c(s1)CCCC2 | 275% | 29.1 µM [rising, single point] | 4.61 µM [rising, partial curve] |
| CCOc1cc(C(=O)NC)cc(OCC)c1OCC | 37.8% | 13 µM [rising, partial curve, poor fit] |  |
| Nc1c(NCc2ccccc2)c(=O)[nH]c(=O)n1Cc1ccccc1 | 24.1% | 0.92 µM [rising, partial curve, poor fit] | 6.51 µM [rising, single point] |
| O=C(Oc1ccccc1F)C1CCN(C(=O)c2ccc(F)cc2)CC1 | -11.1% |  | 18.4 µM [rising, single point] |
| O=C(C[n+]1ccc(/C=N/O)cc1)NCc1ccccc1 | -41.1% | 32.6 µM [falling, single point] |  |
| COc1ccc(-c2nc(CCNC(=O)c3ccco3)cs2)cc1OC | 0.711% |  |  |
| CC(=O)Nc1ccc(NC(=O)CSc2nc(=O)n(Cc3ccncc3)c3c2CCC3)cc1 | -3.21% |  |  |
| Cc1ccc[n+](CC(=O)Nc2cc(C(F)(F)F)ccc2N2CCOCC2)c1 | -29.2% |  |  |
| CCOC(=O)C(NC(=O)Nc1ccc(Cl)cn1)(Oc1ccc(F)cc1)C(F)(F)F (stereo unspecified) | 18% |  | 25.9 µM [falling, single point] |
| COc1ccc(NC(=O)C2CCN(S(=O)(=O)c3cccc4cccnc34)CC2)cc1 | 32.1% | 29.1 µM [rising, single point] |  |
| Cc1cccc2[nH]c(SCC(=O)O)nc12 | -33.8% | 0.116 µM [falling, full curve] | 0.103 µM [falling, full curve, poor fit] |
| COc1ccc(CC(=O)NCc2nnc(SCC(=O)Nc3nccs3)n2-c2ccccc2)cc1 |  |  | 2.31 µM [falling, single point] |
| CC(C)(C)Sc1nc(O)cc(=O)[nH]1 | -32.9% | 4.61 µM [falling, full curve, poor fit] | 5.8 µM [falling, full curve] |
| COCCn1ccc2c(OCC(=O)Nc3cc(OC)ccc3OC)cccc2c1=O |  | 0.13 µM [rising, full curve, poor fit] |  |
| CC(C)CCNC(=O)NC(=O)CSc1ccc(S(=O)(=O)N2CCOCC2)cn1 | -15.4% |  | 6.51 µM [falling, single point] |
| CCN(Cc1ccccc1)C(=O)COC(=O)CNC(=O)c1ccc(C)s1 |  | 5.8 µM [rising, single point] | 1.64 µM [rising, single point] |

Whole records as entered above.
`CCOC(=O)C(NC(=O)Nc1ccc(Cl)cn1)(Oc1ccc(F)cc1)C(F)(F)F` (stereo unspecified) as listed: cell number change: 18%; AC50 [2]: 25.9 µM [falling, single point]
`Cc1ccc2nc(-c3ccc(NC(=O)CN4C(=O)c5ccccc5C4=O)cc3)sc2c1` as listed: cell number change: -46.4%; AC50 [1]: 9.2 µM [falling, partial curve]; AC50 [2]: 10.3 µM [falling, partial curve]
`Cn1cccc1/C=C1\SC(=O)N(c2ccc(O)cc2)C1=O` as listed: cell number change: 15%; AC50 [1]: 0.164 µM [rising, full curve, poor fit]
`Cc1cc(C)c(S(=O)(=O)N2CCC(C(=O)NCc3ccncc3)CC2)c(C)c1` as listed: cell number change: 6.18%; AC50 [2]: 1.3 µM [rising, partial curve]

More compounds follow:

| Structure (SMILES) | cell number change | AC50 [1] | AC50 [2] |
| --- | --- | --- | --- |
| O=C(c1cc2nc(-c3ccco3)cc(C(F)(F)F)n2n1)N1CCCCCC1 | -30.2% | 0.291 µM [falling, full curve, poor fit] |  |
| CCOc1ccc(CNC(=O)C2CCC(=O)N2C2CCCC2)cc1OC (stereo unspecified) | -20.3% |  | 0.164 µM [falling, full curve, poor fit] |
| O=C(NCc1ccccn1)c1cccs1 | -173% | 29.1 µM [falling, single point] |  |
| O=C(O)C1C2C=CC3(O2)C1C(=O)N1c2ccccc2COC13 (stereo unspecified) | -2.55% |  |  |
| CN(CC(=O)NCc1ccc(F)cc1)Cc1ccc(Br)cc1 |  |  | 29.1 µM [rising, single point] |
| O=C(CCc1ccccc1)NNC(=S)NCCc1ccccc1 | 10.5% |  |  |
| O=C(O)COCC(=O)NCc1csc2ccc(Cl)cc12 | 18.9% |  | 4.11 µM [rising, full curve] |
| O=Cc1c(N2CCN(c3cccc(Cl)c3)CC2)nc2ccccn2c1=O |  |  | 3.66 µM [rising, single point] |
| C=CCN1C(=O)NC(c2ccc(OC)cc2)(C(F)(F)F)S/C1=C(\C#N)c1nnc(N2CCOCC2)n1-c1ccccc1 (stereo unspecified) | 7.65% |  | 25.9 µM [falling, single point] |
| CCCSc1cc(=O)n(-c2ccc(F)cc2)nc1C(=O)OCC | 11.2% | 1.46 µM [falling, full curve] | 1.3 µM [falling, full curve] |
| O=C(NC(=S)Nc1ccccc1C(=O)O)c1cncc(Br)c1 | 28.7% |  | 0.58 µM [falling, single point] |
| COc1ccc(C(=O)/C=C/Nc2ccc(S(=O)(=O)Nc3cccc(C(C)=O)c3)cc2)cc1 | -39% | 20.6 µM [falling, single point] |  |
| O=C(CN1CCN(c2ccccc2)CC1)Nc1ccccc1C(F)(F)F | 17.2% |  | 3.66 µM [rising, full curve] |
| CCCOc1ccc(/C(O)=C2/C(=O)C(=O)N(CCCN3CCOCC3)C2c2ccncc2)cc1 (stereo unspecified) | 37.1% | 32.6 µM [rising, single point] | 1.16 µM [rising, partial curve] |
| CC(C#N)N1CCN(S(=O)(=O)c2ccc3c(c2)CCC3)CC1 (stereo unspecified) | -3.95% |  |  |
| CCC(=O)N1CCc2cc(Br)cc(S(=O)(=O)NCCCN(CC)Cc3ccccc3)c21 | 3.6% |  |  |
| COc1ccc(-c2cc([C@H]3[C@@H]4C=CCC[C@@]4(C)C(=O)N3Cc3ccccc3)ccc2F)cc1OC | 7.77% |  | 2.91 µM [rising, single point] |
| CC(C)Nc1nnc(SC(C)C(=O)NCc2ccc3c(c2)OCO3)s1 (stereo unspecified) | 31% | 0.184 µM [rising, full curve] |  |
| NNC(=O)Cn1c(-c2ccccn2)nc2ccccc21 | -3.55% |  |  |
| CC(=O)Nc1cccc(NC(=O)CSc2nnnn2C)c1 | -7.42% |  | 0.731 µM [falling, full curve] |
| COc1cccc(NC(=O)CC2SC(=Nc3ccccc3)NC2=O)c1 (stereo unspecified) | -34.7% | 29.1 µM [falling, single point] |  |

| Structure (SMILES) | cell number change | AC50 [1] | AC50 [2] |
| --- | --- | --- | --- |
| CCN(C(=O)CSc1nnnn1C)c1c(N)n(Cc2ccccc2)c(=O)[nH]c1=O |  |  | 0.116 µM [rising, single point] |
| CCC(C)CCCCNC1=NCCS1 (stereo unspecified) | 68.7% | 18.4 µM [rising, single point] |  |
| CN1CCN(c2ccc(S(=O)(=O)N3CCCCC3)cc2NC(=O)COc2ccc([N+](=O)[O-])cc2)CC1 | 25.5% |  | 0.0116 µM [rising, full curve, poor fit] |
| Nc1n[nH]c(=S)n1-c1ccc(Cl)cc1 | 9.79% |  | 0.0517 µM [falling, full curve, poor fit] |
| Cc1c(C)n(Cc2ccc(F)cc2)c2ccc(C(=O)NCCCN3CCOCC3)cc12 |  |  | 29.1 µM [falling, partial curve] |
| CS(=O)(=O)c1ccc2nc(NC(=O)Nc3ccc(Cl)cc3)sc2c1 | 8.31% |  | 9.2 µM [falling, partial curve, poor fit] |
| Cc1oc2c(cc(NS(=O)(=O)c3ccc(F)cc3)c3ccccc32)c1C(=O)O | -17.1% |  | 6.51 µM [falling, partial curve, poor fit] |
| Cc1cccc(C)c1NC(=O)c1cc(-c2ccccn2)nc2ccccc12 |  | 3.66 µM [rising, partial curve, poor fit] |  |
| CN1CCN(c2nc(-c3ccc(Cl)cc3)nc3ccccc23)CC1 | 11.1% |  |  |
| COC(=O)C(NC(=O)c1ccccc1Cl)(Nc1ncc(S(=O)(=O)c2ccc([N+](=O)[O-])cc2)s1)C(F)(F)F (stereo unspecified) |  |  | 16.4 µM [falling, partial curve] |
| CCc1cccc(NC(=O)c2sc3nc4n(c(=O)c3c2C)CCC4)c1 |  |  | 8.2 µM [falling, partial curve] |
| Cc1cc(C)c2c(C)nn(C3CCCCC3)c2n1 |  | 0.92 µM [rising, full curve] | 1.03 µM [rising, full curve] |
| O=C1CCCN1CC(CN1CCOCC1)Sc1nnnn1-c1ccccc1 (stereo unspecified) | 3.63% | 0.82 µM [rising, full curve, poor fit] | 0.731 µM [rising, full curve] |
| CCCc1cc(=O)oc2c(CNc3ccc(OCC)cc3)c(O)ccc12 | 23.2% |  | 0.651 µM [rising, partial curve, poor fit] |
| C/C(=N\NC(=O)c1ccccc1F)c1ccccn1 |  | 3.26 µM [falling, single point] |  |
| CCC1SC(CC)C(=O)N(CC(=O)Nc2ccc3c(c2)OCO3)C1=O (stereo unspecified) | 16.3% |  | 2.06 µM [rising, full curve] |
| CS(=O)(=O)c1nc(S(=O)(=O)c2ccc(Cl)cc2)c(N2CCCCC2)s1 | -31.9% | 29.1 µM [falling, single point] |  |
| CCCn1c(N2CCN(Cc3ccc(Cl)cc3)CC2)nc2ccccc21 | -40% | 32.6 µM [falling, single point] | 6.51 µM [falling, full curve] |
| Cc1ccccc1-c1nc(S(=O)(=O)c2ccc(Cl)cc2)c(NCCN2CCOCC2)o1 | -1.16% |  |  |
